{"source": "PubChem BioAssay AID652243 – Drosophila RNAi Screening Center | 2013", "test": "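Knock-downs that decrease or increase androgen receptor reporter signal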 (primary screen)", "cells": "Drosophila S2R+ cells", "reagents": "long dsRNA against Drosophila genes", "duration": "72 h (48 h, then 24 h hormone)", "conditions": "synthetic androgen R1881 at 10 nM for 24 h", "detection": "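Firefly light from an androgen-responsive reporter and Renilla control light per well, raw and unnormalised, for each of two replicates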", "reading the numbers": "firefly reporter light: higher = more light from androgen-responsive reporter; Renilla control light: higher = more constitutive control signal (cell number, transfection)", "hit rule": "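Hit when the log firefly-to-Renilla ratio dropped or increased by a fixed fold versus the mean of GFP or LacZ controls across duplicate plates; lowering cut given as 1.5 and as 3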", "meaning of the calls": "active = hit: reporter lowered or raised; inactive = no hit", "note": "The screen tested about 24,000 reagents; below is a random part of those with a known target gene and a result. In the full data, 246 (1%) got an active call. 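Plates not normalised; calls are printed but the firefly/Renilla ratio behind them is not deposited; fold cut for lowering reported inconsistently.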 Raw values are not corrected between plates. Entries without a mark were called inactive. Not given: the amount of reagent."}
{"Gene": "lbl", "dsRNA": "DRSC16986", "firefly reporter light, replicate 1": 2.60e5, "firefly reporter light, replicate 2": 3.29e5, "Renilla control light, replicate 1": 3.55e6, "Renilla control light, replicate 2": 3.61e6}
{"Gene": "ND-51", "dsRNA": "DRSC03145", "firefly reporter light, replicate 1": 6.82e5, "firefly reporter light, replicate 2": 8.65e5, "Renilla control light, replicate 1": 1.69e6, "Renilla control light, replicate 2": 1.97e6}
{"Gene": "CG32440", "dsRNA": "DRSC11480", "firefly reporter light, replicate 1": 7.37e5, "firefly reporter light, replicate 2": 8.72e5, "Renilla control light, replicate 1": 7.24e5, "Renilla control light, replicate 2": 5.97e5}
{"Gene": "CG10286", "dsRNA": "DRSC12520", "firefly reporter light, replicate 1": 58932, "firefly reporter light, replicate 2": 23098, "Renilla control light, replicate 1": 2.48e5, "Renilla control light, replicate 2": 2.70e5}
{"Gene": "e(r)", "dsRNA": "DRSC18768", "firefly reporter light, replicate 1": 1.16e5, "firefly reporter light, replicate 2": 1.33e5, "Renilla control light, replicate 1": 9.99e5, "Renilla control light, replicate 2": 1.11e6}
{"Gene": "Gpo2", "dsRNA": "DRSC06822", "firefly reporter light, replicate 1": 2.82e5, "firefly reporter light, replicate 2": 2.24e5, "Renilla control light, replicate 1": 1.70e6, "Renilla control light, replicate 2": 1.06e6}
{"Gene": "Sem1", "dsRNA": "DRSC02282", "firefly reporter light, replicate 1": 1.20e5, "firefly reporter light, replicate 2": 1.20e5, "Renilla control light, replicate 1": 1.09e6, "Renilla control light, replicate 2": 8.29e5}
{"Gene": "Sem1", "dsRNA": "DRSC30061", "firefly reporter light, replicate 1": 6.17e5, "firefly reporter light, replicate 2": 7.63e5, "Renilla control light, replicate 1": 6.54e5, "Renilla control light, replicate 2": 8.06e5}
{"Gene": "RhoGEF4", "dsRNA": "DRSC11011", "firefly reporter light, replicate 1": 1.47e6, "firefly reporter light, replicate 2": 9.88e5, "Renilla control light, replicate 1": 2.37e6, "Renilla control light, replicate 2": 1.91e6}
{"Gene": "RhoGEF4", "dsRNA": "DRSC26016", "firefly reporter light, replicate 1": 4.32e5, "firefly reporter light, replicate 2": 3.32e5, "Renilla control light, replicate 1": 9.35e5, "Renilla control light, replicate 2": 6.38e5}
{"Gene": "CG17754", "dsRNA": "DRSC18131", "firefly reporter light, replicate 1": 67860, "firefly reporter light, replicate 2": 96170, "Renilla control light, replicate 1": 5.65e5, "Renilla control light, replicate 2": 5.37e5}
{"Gene": "BomS2", "dsRNA": "DRSC21488", "firefly reporter light, replicate 1": 7.81e5, "firefly reporter light, replicate 2": 7.69e5, "Renilla control light, replicate 1": 1.29e6, "Renilla control light, replicate 2": 1.79e6}
{"Gene": "lncRNA:CR34047", "dsRNA": "DRSC07857", "firefly reporter light, replicate 1": 3.20e5, "firefly reporter light, replicate 2": 3.26e5, "Renilla control light, replicate 1": 2.91e6, "Renilla control light, replicate 2": 2.64e6}
{"Gene": "lncRNA:CR34047", "dsRNA": "DRSC21689", "firefly reporter light, replicate 1": 6.39e5, "firefly reporter light, replicate 2": 5.49e5, "Renilla control light, replicate 1": 2.49e6, "Renilla control light, replicate 2": 2.09e6}

Part of the list above, reduced to “firefly reporter light, replicate 2”.
Gpo2 [DRSC06822]: 2.24e5
Sem1 [DRSC02282]: 1.20e5
Sem1 [DRSC30061]: 7.63e5

Next entries:
{"Gene": "Nost", "dsRNA": "DRSC18037", "firefly reporter light, replicate 1": 4.47e5, "firefly reporter light, replicate 2": 6.27e5, "Renilla control light, replicate 1": 1.88e6, "Renilla control light, replicate 2": 1.97e6}
{"Gene": "Nost", "dsRNA": "DRSC18338", "firefly reporter light, replicate 1": 4.33e5, "firefly reporter light, replicate 2": 3.08e5, "Renilla control light, replicate 1": 3.73e6, "Renilla control light, replicate 2": 3.13e6}
{"Gene": "Nost", "dsRNA": "DRSC26627", "firefly reporter light, replicate 1": 4.96e5, "firefly reporter light, replicate 2": 3.42e5, "Renilla control light, replicate 1": 8.76e5, "Renilla control light, replicate 2": 8.12e5}
{"Gene": "Nost", "dsRNA": "DRSC38617", "firefly reporter light, replicate 1": 1.08e6, "firefly reporter light, replicate 2": 6.83e5, "Renilla control light, replicate 1": 2.40e6, "Renilla control light, replicate 2": 1.52e6}
{"Gene": "CBP", "dsRNA": "DRSC17746", "firefly reporter light, replicate 1": 1.40e5, "firefly reporter light, replicate 2": 1.67e5, "Renilla control light, replicate 1": 8.48e5, "Renilla control light, replicate 2": 5.94e5}
{"Gene": "alpha4GT2", "dsRNA": "DRSC15905", "firefly reporter light, replicate 1": 1.72e5, "firefly reporter light, replicate 2": 1.78e5, "Renilla control light, replicate 1": 1.88e6, "Renilla control light, replicate 2": 2.12e6}
{"Gene": "CG11350", "dsRNA": "DRSC08181", "firefly reporter light, replicate 1": 4.09e5, "firefly reporter light, replicate 2": 3.09e5, "Renilla control light, replicate 1": 2.33e6, "Renilla control light, replicate 2": 1.72e6}
{"Gene": "CG11350", "dsRNA": "DRSC25083", "firefly reporter light, replicate 1": 1.03e6, "firefly reporter light, replicate 2": 1.08e6, "Renilla control light, replicate 1": 8.32e5, "Renilla control light, replicate 2": 7.50e5}
